Test results taken from the supplement of paper PMC10849652.
The other results are listed elsewhere or left out.

The chains behind the UniProt entries cited, without tags or fusion partners. Where a name states a change or a piece, a line headed by the entry shows the natural chain unless it says otherwise.
UniProt P19532: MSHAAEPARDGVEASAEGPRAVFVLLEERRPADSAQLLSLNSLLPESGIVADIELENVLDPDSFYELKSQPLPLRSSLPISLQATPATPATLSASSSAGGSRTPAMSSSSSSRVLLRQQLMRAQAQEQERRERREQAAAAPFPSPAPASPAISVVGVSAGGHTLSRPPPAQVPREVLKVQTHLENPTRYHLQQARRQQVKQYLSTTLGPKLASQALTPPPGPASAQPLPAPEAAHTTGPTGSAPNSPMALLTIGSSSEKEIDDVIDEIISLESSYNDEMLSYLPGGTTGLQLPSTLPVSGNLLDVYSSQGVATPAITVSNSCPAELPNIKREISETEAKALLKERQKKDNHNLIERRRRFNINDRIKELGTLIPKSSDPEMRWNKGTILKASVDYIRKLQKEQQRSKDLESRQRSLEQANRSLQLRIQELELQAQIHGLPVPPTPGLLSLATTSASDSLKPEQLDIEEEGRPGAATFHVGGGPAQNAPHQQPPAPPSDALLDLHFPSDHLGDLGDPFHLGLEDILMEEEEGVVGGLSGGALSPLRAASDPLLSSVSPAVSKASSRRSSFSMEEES
UniProt Q00059: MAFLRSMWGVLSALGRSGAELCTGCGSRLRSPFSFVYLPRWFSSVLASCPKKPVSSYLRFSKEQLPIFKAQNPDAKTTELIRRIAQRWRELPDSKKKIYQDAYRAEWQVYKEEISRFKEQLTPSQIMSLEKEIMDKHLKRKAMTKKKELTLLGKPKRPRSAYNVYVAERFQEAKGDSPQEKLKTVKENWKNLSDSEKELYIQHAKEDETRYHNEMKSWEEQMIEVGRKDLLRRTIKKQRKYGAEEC
UniProt Q6P1N9: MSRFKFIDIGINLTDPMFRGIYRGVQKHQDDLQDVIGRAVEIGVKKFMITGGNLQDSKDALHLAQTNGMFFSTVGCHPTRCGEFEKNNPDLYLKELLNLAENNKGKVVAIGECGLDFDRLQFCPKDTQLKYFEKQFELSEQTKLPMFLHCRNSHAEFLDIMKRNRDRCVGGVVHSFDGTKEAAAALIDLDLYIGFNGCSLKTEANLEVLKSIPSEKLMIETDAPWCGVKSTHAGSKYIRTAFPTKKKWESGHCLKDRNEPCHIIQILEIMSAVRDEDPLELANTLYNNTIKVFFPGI
UniProt Q8WUA7: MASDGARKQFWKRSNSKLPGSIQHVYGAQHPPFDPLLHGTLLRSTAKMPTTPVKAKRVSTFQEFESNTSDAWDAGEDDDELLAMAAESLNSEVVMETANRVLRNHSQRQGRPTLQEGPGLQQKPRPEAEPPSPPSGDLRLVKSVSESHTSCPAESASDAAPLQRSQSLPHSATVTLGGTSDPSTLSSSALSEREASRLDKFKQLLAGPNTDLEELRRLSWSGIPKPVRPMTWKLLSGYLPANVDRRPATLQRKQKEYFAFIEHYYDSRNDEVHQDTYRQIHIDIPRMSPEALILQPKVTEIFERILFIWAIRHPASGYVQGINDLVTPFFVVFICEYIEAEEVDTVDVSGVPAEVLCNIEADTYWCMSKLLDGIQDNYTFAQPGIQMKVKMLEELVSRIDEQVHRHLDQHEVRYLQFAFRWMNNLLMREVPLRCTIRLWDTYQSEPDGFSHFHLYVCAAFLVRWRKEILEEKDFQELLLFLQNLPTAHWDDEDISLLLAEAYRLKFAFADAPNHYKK
UniProt Q8NFU7: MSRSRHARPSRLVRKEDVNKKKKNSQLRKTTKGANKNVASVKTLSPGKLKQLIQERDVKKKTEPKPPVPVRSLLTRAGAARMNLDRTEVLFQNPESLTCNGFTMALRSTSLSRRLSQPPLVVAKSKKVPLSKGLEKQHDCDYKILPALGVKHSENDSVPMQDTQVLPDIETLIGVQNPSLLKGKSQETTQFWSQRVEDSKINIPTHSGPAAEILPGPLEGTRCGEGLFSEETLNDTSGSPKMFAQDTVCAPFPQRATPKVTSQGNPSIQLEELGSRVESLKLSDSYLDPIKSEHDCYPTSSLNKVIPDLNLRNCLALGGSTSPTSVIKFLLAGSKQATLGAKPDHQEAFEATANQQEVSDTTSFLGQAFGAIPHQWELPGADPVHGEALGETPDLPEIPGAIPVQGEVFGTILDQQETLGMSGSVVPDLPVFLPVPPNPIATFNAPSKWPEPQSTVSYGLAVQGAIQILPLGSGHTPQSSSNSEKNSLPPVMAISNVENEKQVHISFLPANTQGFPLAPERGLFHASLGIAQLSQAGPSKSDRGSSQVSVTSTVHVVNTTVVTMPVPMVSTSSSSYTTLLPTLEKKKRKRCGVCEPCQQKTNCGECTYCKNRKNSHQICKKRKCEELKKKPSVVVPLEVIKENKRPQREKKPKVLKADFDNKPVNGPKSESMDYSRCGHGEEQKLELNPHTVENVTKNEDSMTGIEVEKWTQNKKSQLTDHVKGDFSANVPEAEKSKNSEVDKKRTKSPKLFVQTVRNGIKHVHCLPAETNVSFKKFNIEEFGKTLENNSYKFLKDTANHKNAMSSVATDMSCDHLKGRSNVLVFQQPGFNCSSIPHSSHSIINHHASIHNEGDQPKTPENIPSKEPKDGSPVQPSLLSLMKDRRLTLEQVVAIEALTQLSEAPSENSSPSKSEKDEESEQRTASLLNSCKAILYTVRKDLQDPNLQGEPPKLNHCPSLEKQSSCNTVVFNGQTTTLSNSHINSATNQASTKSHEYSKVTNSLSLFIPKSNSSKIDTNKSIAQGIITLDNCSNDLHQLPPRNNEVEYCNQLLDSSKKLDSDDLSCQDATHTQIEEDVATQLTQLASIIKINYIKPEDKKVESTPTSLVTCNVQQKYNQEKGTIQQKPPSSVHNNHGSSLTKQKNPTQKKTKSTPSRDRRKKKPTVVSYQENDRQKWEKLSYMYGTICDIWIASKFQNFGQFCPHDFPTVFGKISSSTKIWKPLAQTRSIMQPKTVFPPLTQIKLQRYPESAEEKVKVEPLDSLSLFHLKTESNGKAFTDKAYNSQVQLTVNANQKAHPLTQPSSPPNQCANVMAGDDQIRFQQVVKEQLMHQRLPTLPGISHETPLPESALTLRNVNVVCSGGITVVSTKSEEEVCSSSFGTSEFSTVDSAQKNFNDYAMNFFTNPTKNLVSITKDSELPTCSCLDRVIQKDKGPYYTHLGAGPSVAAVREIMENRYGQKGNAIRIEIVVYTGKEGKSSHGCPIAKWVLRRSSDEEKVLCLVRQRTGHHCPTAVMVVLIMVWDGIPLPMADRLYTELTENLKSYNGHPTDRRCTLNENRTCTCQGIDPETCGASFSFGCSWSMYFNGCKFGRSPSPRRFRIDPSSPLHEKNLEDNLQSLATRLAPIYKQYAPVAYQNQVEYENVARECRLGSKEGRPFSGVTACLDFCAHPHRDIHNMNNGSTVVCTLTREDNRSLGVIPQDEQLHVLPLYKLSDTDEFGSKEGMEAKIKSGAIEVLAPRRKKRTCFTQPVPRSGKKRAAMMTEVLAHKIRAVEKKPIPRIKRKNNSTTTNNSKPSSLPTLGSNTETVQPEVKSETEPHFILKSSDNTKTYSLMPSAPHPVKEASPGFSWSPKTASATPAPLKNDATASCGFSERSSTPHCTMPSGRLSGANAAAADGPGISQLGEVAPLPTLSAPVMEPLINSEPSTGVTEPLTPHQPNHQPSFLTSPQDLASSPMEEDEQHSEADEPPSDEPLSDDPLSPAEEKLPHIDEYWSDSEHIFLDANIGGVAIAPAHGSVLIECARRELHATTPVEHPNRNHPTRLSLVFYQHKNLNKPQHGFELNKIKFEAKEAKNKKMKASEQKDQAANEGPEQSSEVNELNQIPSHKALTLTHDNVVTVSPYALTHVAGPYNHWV
UniProt Q14186: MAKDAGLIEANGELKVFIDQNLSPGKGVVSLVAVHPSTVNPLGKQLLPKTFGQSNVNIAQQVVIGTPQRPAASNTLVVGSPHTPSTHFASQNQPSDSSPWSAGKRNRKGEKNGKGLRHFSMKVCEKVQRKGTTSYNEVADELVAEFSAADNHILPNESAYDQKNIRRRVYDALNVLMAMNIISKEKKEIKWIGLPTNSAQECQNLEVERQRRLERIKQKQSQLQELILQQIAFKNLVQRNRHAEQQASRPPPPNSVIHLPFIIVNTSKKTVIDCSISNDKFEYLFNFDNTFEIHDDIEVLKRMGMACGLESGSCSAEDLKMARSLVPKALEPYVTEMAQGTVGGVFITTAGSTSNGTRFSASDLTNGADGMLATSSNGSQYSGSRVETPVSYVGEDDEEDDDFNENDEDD
UniProt Q9BTW9: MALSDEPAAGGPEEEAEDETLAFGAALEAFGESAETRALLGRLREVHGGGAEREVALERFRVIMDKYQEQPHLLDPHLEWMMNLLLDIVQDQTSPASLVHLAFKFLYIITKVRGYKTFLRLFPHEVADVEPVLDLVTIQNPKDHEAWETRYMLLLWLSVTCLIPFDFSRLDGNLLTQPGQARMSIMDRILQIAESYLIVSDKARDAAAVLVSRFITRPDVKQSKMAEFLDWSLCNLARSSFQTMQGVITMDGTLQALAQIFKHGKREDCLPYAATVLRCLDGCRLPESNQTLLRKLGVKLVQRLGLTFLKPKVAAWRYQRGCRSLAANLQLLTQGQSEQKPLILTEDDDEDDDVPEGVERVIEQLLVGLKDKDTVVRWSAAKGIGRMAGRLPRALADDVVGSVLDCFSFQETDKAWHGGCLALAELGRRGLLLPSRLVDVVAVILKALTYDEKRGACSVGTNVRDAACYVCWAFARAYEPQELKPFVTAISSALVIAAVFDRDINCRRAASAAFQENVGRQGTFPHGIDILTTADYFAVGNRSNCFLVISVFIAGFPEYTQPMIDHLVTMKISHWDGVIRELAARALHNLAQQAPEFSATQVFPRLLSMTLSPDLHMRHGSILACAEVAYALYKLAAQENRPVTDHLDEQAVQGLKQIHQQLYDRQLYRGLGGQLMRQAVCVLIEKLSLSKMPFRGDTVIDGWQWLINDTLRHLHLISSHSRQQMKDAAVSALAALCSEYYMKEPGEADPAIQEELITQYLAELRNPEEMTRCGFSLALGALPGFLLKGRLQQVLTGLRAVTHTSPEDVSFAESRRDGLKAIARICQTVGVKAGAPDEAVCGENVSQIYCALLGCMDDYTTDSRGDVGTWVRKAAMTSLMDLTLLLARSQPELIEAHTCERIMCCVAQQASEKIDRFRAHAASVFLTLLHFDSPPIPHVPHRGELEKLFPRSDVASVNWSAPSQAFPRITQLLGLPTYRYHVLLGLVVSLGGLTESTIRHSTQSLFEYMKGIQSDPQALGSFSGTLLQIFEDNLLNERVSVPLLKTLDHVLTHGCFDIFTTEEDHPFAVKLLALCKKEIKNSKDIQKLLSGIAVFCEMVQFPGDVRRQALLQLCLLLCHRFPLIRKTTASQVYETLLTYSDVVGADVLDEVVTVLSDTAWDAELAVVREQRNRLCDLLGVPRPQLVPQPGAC
UniProt Q9UGI8: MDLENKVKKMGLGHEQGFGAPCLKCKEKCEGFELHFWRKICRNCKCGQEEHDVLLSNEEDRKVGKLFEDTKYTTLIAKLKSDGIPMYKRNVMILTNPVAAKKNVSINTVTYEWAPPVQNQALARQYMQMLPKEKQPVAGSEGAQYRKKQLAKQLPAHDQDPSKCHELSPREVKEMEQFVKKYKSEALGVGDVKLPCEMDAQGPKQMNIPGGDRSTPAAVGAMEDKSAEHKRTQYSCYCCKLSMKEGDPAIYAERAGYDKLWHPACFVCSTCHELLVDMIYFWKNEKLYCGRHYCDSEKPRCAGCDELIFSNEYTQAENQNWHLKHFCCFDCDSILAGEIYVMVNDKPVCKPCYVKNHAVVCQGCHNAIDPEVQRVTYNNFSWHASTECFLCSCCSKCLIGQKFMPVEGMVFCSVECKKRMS
UniProt Q9ULP9: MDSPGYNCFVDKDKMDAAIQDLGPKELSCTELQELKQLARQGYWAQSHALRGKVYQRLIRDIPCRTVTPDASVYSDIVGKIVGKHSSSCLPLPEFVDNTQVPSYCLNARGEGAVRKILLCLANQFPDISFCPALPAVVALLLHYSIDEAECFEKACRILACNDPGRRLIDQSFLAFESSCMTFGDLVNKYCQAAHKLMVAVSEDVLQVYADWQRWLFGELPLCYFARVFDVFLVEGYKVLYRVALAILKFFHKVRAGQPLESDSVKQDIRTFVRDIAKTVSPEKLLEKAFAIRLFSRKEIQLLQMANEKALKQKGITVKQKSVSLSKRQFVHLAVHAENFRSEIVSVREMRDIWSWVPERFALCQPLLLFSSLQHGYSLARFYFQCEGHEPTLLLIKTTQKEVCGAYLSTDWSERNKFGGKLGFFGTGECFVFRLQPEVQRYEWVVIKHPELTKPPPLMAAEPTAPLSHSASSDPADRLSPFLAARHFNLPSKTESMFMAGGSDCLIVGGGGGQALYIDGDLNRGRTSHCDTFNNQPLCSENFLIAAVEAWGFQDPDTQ

How the values were obtained:
Test in all cases: log2 fold change, soluble protein after heating vs DMSO (PISA); higher = thermal stabilisation; K562 lysate, 10 uM; active = over 0.2 and 3.5 SD of the protein, either way, in both replicates (recomputed)
alvocidib = compound: CN1CC[C@H](c2c(O)cc(O)c3c(=O)cc(-c4ccccc4Cl)oc23)[C@H](O)C1 [alvocidib]
Outline: (§1)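 Log-two fold change in thermal stability relative to solvent controls is reported from duplicates. For each sample, crude K562 extract from dounce-homogenised pellets in PBS pH 7.4 with 1 mM MgCl2, at 1 mg/mL protein, was treated with 10 μM compound for 30 min. Aliquots heated for 3 min across 48°C-58°C were pooled, brought to 0.5% NP-40 at 4°C and cleared at 21,000xg for 90 min. The supernatant was quantified by TMTpro 16plex LC-MS/MS with channel sums equalised.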

Tubastatin A = compound: CN1CCc2c(c3ccccc3n2Cc2ccc(C(=O)NO)cc2)C1 [Tubastatin A]
Outline: as §1

[1] = compound: CNC(=O)C1=CC=CC=C1NC2=NC(=NC=C2Cl)NC3=C(C=C(C=C3)N4CCOCC4)OC
Outline: as §1

defactinib = compound: CNC(=O)c1ccc(Nc2ncc(C(F)(F)F)c(NCc3nccnc3N(C)S(C)(=O)=O)n2)cc1 [defactinib]
Outline: as §1

[2] = compound: CNc1nc(-c2ccc3c(N)n[nH]c3c2)cc(N2C[C@@H](C(=O)NC3CCCCC3)CC[C@H]2C)n1
Outline: as §1

encorafenib = compound: COC(=O)N[C@@H](C)CNc1nccc(-c2cn(C(C)C)nc2-c2cc(Cl)cc(NS(C)(=O)=O)c2F)n1 [encorafenib]
Outline: as §1

[3] = compound: COC(=O)[C@H](CCSC)NC(=O)C1=C(C=C(C=C1)NC[C@H](CS)N)C2=CC=CC=C2
Outline: as §1

alisertib = compound: COc1cc(Nc2ncc3c(n2)-c2ccc(Cl)cc2C(c2c(F)cccc2OC)=NC3)ccc1C(=O)O [alisertib]
Outline: as §1

[4] = compound: COc1cc2nc(-c3cc(F)ccc3O)nc(N[C@@H]3CNC[C@H]3C(C)(C)O)c2cc1OC
Outline: as §1

gefitinib = compound: COc1cc2ncnc(Nc3ccc(F)c(Cl)c3)c2cc1OCCCN1CCOCC1 [gefitinib]
Outline: as §1

lapatinib = compound: CS(=O)(=O)CCNCc1ccc(-c2ccc3ncnc(Nc4ccc(OCc5cccc(F)c5)c(Cl)c4)c3c2)o1 [lapatinib]
Outline: as §1

pictilisib = compound: CS(=O)(=O)N1CCN(Cc2cc3nc(-c4cccc5[nH]ncc45)nc(N4CCOCC4)c3s2)CC1 [pictilisib]
Outline: as §1

crizotinib = compound: C[C@@H](Oc1cc(-c2cnn(C3CCNCC3)c2)cnc1N)c1c(Cl)ccc(F)c1Cl [crizotinib]
Outline: as §1

[5] = compound: C[C@H](C1=CC=C(C=C1)C(=O)NC2=C3C=CNC3=NC=C2)N
Outline: as §1

duvelisib = compound: C[C@H](Nc1ncnc2nc[nH]c12)c1cc2cccc(Cl)c2c(=O)n1-c1ccccc1 [duvelisib]
Outline: as §1

gandotinib = compound: Cc1cc(Nc2cc(CN3CCOCC3)c3nc(C)c(Cc4ccc(Cl)cc4F)n3n2)n[nH]1 [gandotinib]
Outline: as §1

tozasertib = compound: Cc1cc(Nc2cc(N3CCN(C)CC3)nc(Sc3ccc(NC(=O)C4CC4)cc3)n2)n[nH]1 [tozasertib]
Outline: as §1

doramapimod = compound: Cc1ccc(-n2nc(C(C)(C)C)cc2NC(=O)Nc2ccc(OCCN3CCOCC3)c3ccccc23)cc1 [doramapimod]
Outline: as §1

bafetinib = compound: Cc1ccc(NC(=O)c2ccc(CN3CC[C@H](N(C)C)C3)c(C(F)(F)F)c2)cc1Nc1nccc(-c2cncnc2)n1 [bafetinib]
Outline: as §1

[6] = compound: Cc1cccc(CC(=O)N2CCc3c2ccc(-c2cn(C)c4ncnc(N)c24)c3F)n1
Outline: as §1

Measured: log2 fold change

TFE3 (UniProt P19532)
inactive: alvocidib 0.031 | Tubastatin A 0.019 | [1] 0.07 | defactinib -0.048 | [2] 0.045 | encorafenib -0.019 | [3] -0.159 | alisertib 0.041 | [4] 0.109 | gefitinib -0.07 | lapatinib 0.004 | pictilisib -0.042 | crizotinib 0.134 | [5] -0.072 | duvelisib -0.091 | gandotinib 0.051 | tozasertib -0.068 | doramapimod 0.121 | bafetinib 0.049 | [6] 0.016

TBC1D15 isoform 3 (UniProt Q8TC07)
inactive: alvocidib 0.029 | Tubastatin A -0.054 | [1] 0.016 | defactinib 0.002 | [2] -0.004 | encorafenib -0.017 | [3] 0.021 | alisertib 0.009 | [4] -0.005 | gefitinib 0.003 | lapatinib 0.01 | pictilisib -0.003 | crizotinib -0.079 | [5] 0.053 | duvelisib -0.019 | gandotinib -0.043 | tozasertib -0.006 | doramapimod 0 | bafetinib -0.038 | [6] -0.012

TFAM (UniProt Q00059)
inactive: alvocidib 0.015 | Tubastatin A 0.015 | [1] -0.018 | defactinib -0.01 | [2] 0.023 | encorafenib -0.011 | [3] -0.031 | alisertib -0.001 | [4] -0.024 | gefitinib 0.014 | lapatinib -0.004 | pictilisib -0.001 | crizotinib 0.045 | [5] 0.015 | duvelisib -0.014 | gandotinib -0.064 | tozasertib 0.011 | doramapimod -0.024 | bafetinib -0.02 | [6] -0.064

TATDN1 (UniProt Q6P1N9)
inactive: alvocidib -0.018 | Tubastatin A 0.03 | [1] 0.013 | defactinib -0.036 | [2] -0.065 | encorafenib -0.015 | [3] -0.032 | alisertib -0.016 | [4] 0.001 | gefitinib 0.023 | lapatinib 0.024 | pictilisib 0.029 | crizotinib 0.057 | [5] 0.004 | duvelisib 0.011 | gandotinib 0.021 | tozasertib -0.007 | doramapimod 0.008 | bafetinib 0.042 | [6] 0.004

TAOK3 (UniProt Q9H2K8)
inactive: alvocidib 0.116 | Tubastatin A 0.006 | [1] 0.099 | defactinib -0.016 | [2] -0.001 | encorafenib -0.05 | [3] -0.002 | alisertib -0.026 | [4] 0.015 | gefitinib 0.01 | lapatinib -0.058 | pictilisib -0.017 | crizotinib 0.066 | [5] 0.153 | duvelisib 0.016 | gandotinib -0.15 | tozasertib -0.016 | doramapimod -0.005 | bafetinib -0.074 | [6] -0.126

TBC1D22A (UniProt Q8WUA7)
inactive: alvocidib -0.103 | Tubastatin A 0.023 | [1] -0.022 | defactinib 0.045 | [2] 0.053 | encorafenib 0.081 | [3] -0.047 | alisertib 0.002 | [4] -0.011 | gefitinib 0.063 | lapatinib 0.021 | pictilisib -0.043 | crizotinib 0.032 | [5] 0.01 | duvelisib 0.007 | gandotinib -0.012 | tozasertib -0.012 | doramapimod -0.01 | bafetinib 0.071 | [6] 0.027

TET1 (UniProt Q8NFU7)
inactive: alvocidib -0.303 | Tubastatin A 0.414 | [1] -0.059 | defactinib -0.06 | [2] 0.63 | encorafenib -0.02 | [3] 0.028 | alisertib -0.006 | [4] 0.096 | gefitinib -0.092 | lapatinib -0.12 | pictilisib -0.041 | crizotinib -0.316 | [5] -0.581 | duvelisib 0.131 | gandotinib 0.562 | tozasertib -0.049 | doramapimod -0.018 | bafetinib -0.209 | [6] 0.61

TFDP1 (UniProt Q14186)
inactive: alvocidib -0.02 | Tubastatin A -0.042 | [1] -0.028 | defactinib 0.076 | [2] 0.125 | encorafenib 0.069 | [3] -0.133 | alisertib 0.043 | [4] 0.018 | gefitinib -0.039 | lapatinib -0.005 | pictilisib -0.025 | crizotinib -0.042 | [5] 0.003 | duvelisib -0.03 | gandotinib 0.028 | tozasertib 0.004 | doramapimod 0.011 | bafetinib -0.034 | [6] -0.003

TBCD (UniProt Q9BTW9)
inactive: alvocidib -0.014 | Tubastatin A -0.047 | [1] 0.036 | defactinib -0.015 | [2] 0 | encorafenib 0.021 | [3] 0.016 | alisertib 0.016 | [4] 0.008 | gefitinib 0.012 | lapatinib -0.014 | pictilisib -0.03 | crizotinib -0.052 | [5] -0.079 | duvelisib 0.006 | gandotinib 0.002 | tozasertib 0.002 | doramapimod 0.021 | bafetinib -0.034 | [6] 0.066

TBC1D7 (UniProt Q9P0N9)
inactive: alvocidib 0.018 | Tubastatin A -0.012 | [1] -0.011 | defactinib 0.063 | [2] -0.038 | encorafenib -0.007 | [3] 0.003 | alisertib -0.02 | [4] 0.051 | gefitinib -0.251 | lapatinib -0.118 | pictilisib -0.044 | crizotinib -0.056 | [5] -0.181 | duvelisib -0.013 | gandotinib 0.043 | tozasertib 0.049 | doramapimod 0.007 | bafetinib -0.004 | [6] 0.109

Quoted at random: two entries already listed.
TFE3 (UniProt P19532)
inactive: alvocidib 0.031 | Tubastatin A 0.019 | [1] 0.07 | defactinib -0.048 | [2] 0.045 | encorafenib -0.019 | [3] -0.159 | alisertib 0.041 | [4] 0.109 | gefitinib -0.07 | lapatinib 0.004 | pictilisib -0.042 | crizotinib 0.134 | [5] -0.072 | duvelisib -0.091 | gandotinib 0.051 | tozasertib -0.068 | doramapimod 0.121 | bafetinib 0.049 | [6] 0.016

TATDN1 (UniProt Q6P1N9)
inactive: alvocidib -0.018 | Tubastatin A 0.03 | [1] 0.013 | defactinib -0.036 | [2] -0.065 | encorafenib -0.015 | [3] -0.032 | alisertib -0.016 | [4] 0.001 | gefitinib 0.023 | lapatinib 0.024 | pictilisib 0.029 | crizotinib 0.057 | [5] 0.004 | duvelisib 0.011 | gandotinib 0.021 | tozasertib -0.007 | doramapimod 0.008 | bafetinib 0.042 | [6] 0.004

Following part

TES (UniProt Q9UGI8)
inactive: alvocidib -0.043 | Tubastatin A 0.035 | [1] -0.003 | defactinib -0.045 | [2] 0.018 | encorafenib -0.014 | [3] -0.043 | alisertib 0 | [4] 0 | gefitinib -0.029 | lapatinib 0.011 | pictilisib 0.003 | crizotinib -0.005 | [5] -0.056 | duvelisib 0.01 | gandotinib 0.011 | tozasertib 0.017 | doramapimod 0 | bafetinib -0.003 | [6] 0.022

TFB1M (UniProt Q8WVM0)
inactive: alvocidib 0.026 | Tubastatin A -0.086 | [1] -0.046 | defactinib 0.05 | [2] 0.075 | encorafenib 0.023 | [3] -0.099 | alisertib -0.026 | [4] -0.004 | gefitinib 0.033 | lapatinib -0.051 | pictilisib 0.003 | crizotinib 0.017 | [5] -0.032 | duvelisib -0.025 | gandotinib -0.066 | tozasertib 0.003 | doramapimod 0 | bafetinib 0.055 | [6] 0.019

TBC1D24 (UniProt Q9ULP9)
inactive: alvocidib 0.008 | Tubastatin A -0.064 | [1] 0.022 | defactinib 0.001 | [2] -0.037 | encorafenib 0.025 | [3] 0.015 | alisertib 0.009 | [4] 0.019 | gefitinib 0.001 | lapatinib -0.05 | pictilisib 0.04 | crizotinib -0.147 | [5] -0.033 | duvelisib -0.065 | gandotinib -0.049 | tozasertib 0.016 | doramapimod 0.033 | bafetinib -0.039 | [6] 0.003

TARS2 (UniProt Q9BW92)
inactive: alvocidib -0.005 | Tubastatin A -0.099 | [1] -0.008 | defactinib -0.014 | [2] -0.051 | encorafenib 0.016 | [3] 0.136 | alisertib -0.037 | [4] 0.01 | gefitinib 0.156 | lapatinib 0.04 | pictilisib 0.003 | crizotinib -0.023 | [5] -0.057 | duvelisib -0.018 | gandotinib -0.045 | tozasertib 0.025 | doramapimod 0.05 | bafetinib 0.034 | [6] 0.035

TANGO6 (UniProt Q9C0B7)
inactive: alvocidib -0.094 | Tubastatin A -0.031 | [1] -0.005 | defactinib -0.047 | [2] 0 | encorafenib -0.024 | [3] -0.009 | alisertib -0.022 | [4] 0.027 | gefitinib 0.117 | lapatinib -0.054 | pictilisib -0.002 | crizotinib -0.065 | [5] -0.102 | duvelisib 0.005 | gandotinib 0.037 | tozasertib -0.023 | doramapimod 0.014 | bafetinib -0.064 | [6] 0.115
